Results are given in words; binding and its absence hold for the method and conditions named. Some results given as binding are weak or reduced against the parent protein; the word gives no strength.
Molecular target: Drosophila full-length NompC (Drosophila) (UniProt E0A9E1)
Assay: optical tweezers (single-molecule force spectroscopy); single nanodisc-embedded NompC complex tethered between two beads by DNA handles (SpyTag-SpyCatcher at the N terminus of one subunit, biotin-PE/streptavidin at the nanodisc), pulled from one ARD at 10 nm/s; 20 mM bicine pH 8.5, 300 mM …; stiffness compared with NompC-Δ12; both purified

The chains behind the UniProt entries cited, without tags or fusion partners.
UniProt E0A9E1: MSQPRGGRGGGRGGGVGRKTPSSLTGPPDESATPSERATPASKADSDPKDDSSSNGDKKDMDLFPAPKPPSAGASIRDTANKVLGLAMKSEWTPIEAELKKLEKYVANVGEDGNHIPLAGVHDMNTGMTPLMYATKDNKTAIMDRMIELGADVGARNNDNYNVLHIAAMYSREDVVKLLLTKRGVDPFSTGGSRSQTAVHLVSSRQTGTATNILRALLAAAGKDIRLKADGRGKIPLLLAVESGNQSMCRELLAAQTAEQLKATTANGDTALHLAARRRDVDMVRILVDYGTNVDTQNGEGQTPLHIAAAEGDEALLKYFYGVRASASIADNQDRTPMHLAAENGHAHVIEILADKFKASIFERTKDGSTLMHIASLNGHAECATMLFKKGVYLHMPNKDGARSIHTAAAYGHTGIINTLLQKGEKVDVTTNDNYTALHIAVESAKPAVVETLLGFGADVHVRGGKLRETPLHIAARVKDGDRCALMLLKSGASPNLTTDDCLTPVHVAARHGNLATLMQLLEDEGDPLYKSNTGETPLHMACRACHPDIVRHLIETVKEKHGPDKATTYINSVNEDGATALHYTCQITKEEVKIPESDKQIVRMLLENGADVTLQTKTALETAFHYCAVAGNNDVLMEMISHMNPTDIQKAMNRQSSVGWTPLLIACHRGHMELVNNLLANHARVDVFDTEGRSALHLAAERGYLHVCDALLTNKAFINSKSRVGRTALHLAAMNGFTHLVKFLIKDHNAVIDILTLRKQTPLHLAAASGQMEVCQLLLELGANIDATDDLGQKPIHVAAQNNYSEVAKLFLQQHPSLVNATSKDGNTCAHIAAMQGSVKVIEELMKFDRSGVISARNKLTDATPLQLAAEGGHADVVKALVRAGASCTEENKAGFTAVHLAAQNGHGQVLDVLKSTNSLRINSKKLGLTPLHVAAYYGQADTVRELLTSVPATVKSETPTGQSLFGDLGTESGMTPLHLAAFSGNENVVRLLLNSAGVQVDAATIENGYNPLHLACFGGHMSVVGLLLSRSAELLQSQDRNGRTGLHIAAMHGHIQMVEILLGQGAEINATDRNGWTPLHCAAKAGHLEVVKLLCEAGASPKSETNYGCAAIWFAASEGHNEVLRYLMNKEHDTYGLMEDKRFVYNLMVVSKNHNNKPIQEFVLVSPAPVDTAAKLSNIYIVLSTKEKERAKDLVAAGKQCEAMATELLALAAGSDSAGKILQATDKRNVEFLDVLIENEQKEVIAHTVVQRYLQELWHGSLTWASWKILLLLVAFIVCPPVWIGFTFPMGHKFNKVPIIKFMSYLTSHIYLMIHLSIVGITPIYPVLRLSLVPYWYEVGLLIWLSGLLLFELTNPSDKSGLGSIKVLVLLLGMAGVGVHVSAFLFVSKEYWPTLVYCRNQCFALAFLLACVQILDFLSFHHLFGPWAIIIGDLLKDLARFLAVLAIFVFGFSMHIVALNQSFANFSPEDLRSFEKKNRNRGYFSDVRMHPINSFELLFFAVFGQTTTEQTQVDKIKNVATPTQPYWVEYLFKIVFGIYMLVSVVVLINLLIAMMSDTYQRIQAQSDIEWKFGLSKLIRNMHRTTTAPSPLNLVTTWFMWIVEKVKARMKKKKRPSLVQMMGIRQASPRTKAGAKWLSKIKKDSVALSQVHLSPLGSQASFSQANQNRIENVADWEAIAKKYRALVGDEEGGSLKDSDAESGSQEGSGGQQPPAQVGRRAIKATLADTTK

binding: binds
Substance: Drosophila full-length NompC (from UniProt E0A9E1 1-1732) (complex)

Reference: paper PMC13041742, “Nonlinear stiffness of NompC gating spring and its implication in mechanotransduction” (Science Advances, 2026)
